# Construct, isoform or probe ends are uncertain for at least one entry. No signal at the amounts used counts as a negative.
# Chains of the proteins cited; added tags and fusions are not shown. Lines headed by an entry give the natural chain unless they say otherwise; changes in a name come on top.
# UniProt P0AFB8: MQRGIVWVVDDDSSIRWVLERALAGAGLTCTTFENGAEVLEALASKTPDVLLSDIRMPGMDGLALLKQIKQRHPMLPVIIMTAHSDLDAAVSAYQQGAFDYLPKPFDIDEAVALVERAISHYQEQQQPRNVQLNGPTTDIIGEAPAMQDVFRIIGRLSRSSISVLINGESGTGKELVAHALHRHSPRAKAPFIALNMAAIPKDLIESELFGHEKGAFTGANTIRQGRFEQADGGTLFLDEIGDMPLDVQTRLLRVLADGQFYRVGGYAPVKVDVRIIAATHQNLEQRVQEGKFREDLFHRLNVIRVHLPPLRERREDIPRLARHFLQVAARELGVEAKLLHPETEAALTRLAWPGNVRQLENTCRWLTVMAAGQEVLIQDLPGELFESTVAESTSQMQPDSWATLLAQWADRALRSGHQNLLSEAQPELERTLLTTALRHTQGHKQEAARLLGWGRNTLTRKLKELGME
# Molecular target: NtrC-P (NtrC phosphorylated in situ with carbamyl phosphate) (Escherichia coli (ASKA(-) clone JW3839)) (UniProt P0AFB8)
# Assay: EMSA
# Settings: 10 mM carbamyl phosphate, EMSA: 40 mM Tris-HCl pH 8.0, 100 mM NaCl, 10 mM MgCl2, 1 mM DTT, 0-1000 nM NtrC, 5 nM 32P probe, 37 C, 4.5% native PAGE at 37 C, recombinant protein, protein details: 6xHis, label: 32P
row,Sequence,binding result
1,GTCCCTTTGTGATCGCTTTCACGGAGCATAAAAAGGGTTATCCAAAGGTCATTGCACCAACATGGTGCTTAATGTTTCCATTGAAGCACTATATTGGTGCAACATTCACATCGTGGTGCAGCCCTTTTGCACGATGGTGCGCATGATAACGCCTTTTAGGGGCAATTTAAAAGTTGGCACAGATTTCGCTTTATCTTTTTTACGGCGACACGGCCAAAATAATTGCAGATTTCGTTACCACGACGACCATGACCAATCCAGGAGAGTTAAAGTATGTCCGCTGAACACGTACTGACGATGCTGAACGAGCACGAAGTGAAGTTTGTTGATTTGCGCTTCACCGA (double strand) [glnA probe],binds
2,CACAGCAACTTCAGATGGGGTTTCGCAAAGCGGGCTCCAGTGACATTGTCGACGTCAAACAATGCCCCATTTTAGCGCCCCAACTTGAAGCATTGCTGCCCAAAGTCAGGGCATGTCTGGGCAGCTTACAAGCTATGCGCCATCTTGGTCATGTTGAACTGGTACAGGCAACCAGCGGCACGCTGATGATTTTGCGCCATACCGCACCGCTAAGTTCGGCAGATCGCGAAAAACTGGAACGCTTTTCGCATTCTGAAGGCCTGGATCTGTATCTCGCCCCCGATAGTGAGATACTCGAAACCGTCTCTGGTGAGATGCCCTGGTATGACTCAAACG (double strand) [relA probe],binds

# Same assay, conditions: 10 mM carbamyl phosphate, up to 1000 nM NtrC-P, EMSA: 40 mM Tris-HCl pH 8.0, 100 mM NaCl, 10 mM MgCl2, 1 mM DTT, 0-1000 nM NtrC, 5 nM 32P probe, 37 C, 4.5% native PAGE at 37 C, recombinant protein, protein details: 6xHis, label: 32P
row,Sequence,binding result
1,CTTGCTGCGCTTCGTTGATCAGCGCATCGGCAATTTTGCCGGTGTCCATTTTTAGTTCACCGTTACGAATCGCCAGTTTTAACGCTTCGACACGTTCAAGATTGATATCACTGCTGCCGGGTTGCATCAGTTTTGCTTGCGCGTCGCTTAACGTCACACTGGTGCTGGTGGAGGCGGTTGTTTTTGCCGCCCGGCTGTTCGTTACCGGCGCGTCAGTGGTTTCGCGCGGTTGAACGGTGCTTACAGGCTTCAGAGGCGAAGTGCGATCAATACTCATGGTTTATTCCTCATTGAGGGCGCTTTTATCATGTG (double strand) [flgN probe (flgMN)],no binding
2,TTAGTACCGGTAGTGGCCTGTACCGTCAGTTCACGCACACGCTGTAAGTTGTTGTTGATTTCGGACAGCGCGCCTTCGGTGGTCTGCGCAACGGAGATACCGTCGTTGGCGTTACGGGCCGCCTGAGTCAGGCCTTTAATGTTAGAGGTGAAACGGTTAGCAATCGCCTGACCCGCTGCGTCATCCTTCGCGCTGTTAATACGCAAGCCAGAAGACAGACGCTCGATAGAACTCGACAGCGCAGACTGGTTCTTGTTGATATTATTTTGAGTGATCAGCGAGAGGCTGTTGGTATTAATGACTTGTGCCATGATTCGTTATCCTATATTGCAAGTCGTTGATTACGTATTGGGTTTCCA (double strand) [fliC probe],no binding
3,TTGAACAAGGTCGCATCACCGAAAAAACTAACCAAAACTTTGAATGACACTTTTCGGTTTACTGTGGTAGAGTAACCGTGAAGACAAAATTTCTCTGAGATGTTCGCAAGCGGGCCAGTCCCCTGAGCCGATATTTCATACCACAAGAATGTGGCGCTCCGCGGTTGGTGAGCATGCTCGGTCCGTCCGAGAAGCCTTAAAACTGCGACGACACATTCACCTTGAACCAAGGGTTCAAGGGTTACAGCCTGCGGCGGCATCTCGGAGATTCCCTTCTTATCTGGCACCAGCCATGACGCAACTACCAGAACTCCCACTGACATTATCCCGACAAGAAATCCGCAAA (double strand) [ssrS probe],no binding
4,ACGAATACCTGCTGCTTGTGCAAGTTTTGTTTTTGAACCGAAATACAAAAGAGCGTCAGTTTTAAGCATTTAAAACACCTTTATTGTTAGTCATAACTAACAAGATAGATGTTAACAAAAACATAGTCAATACGATTTAGCATTAGCTAACTATGGAAACAAAAAATTTAACTATCGGCGAACGCATCAGGTATCGTCGGAAAAACCTCAAACACACCCAAAGGTCTCTTGCTAAAGCCCTGAAAATCTCCCATGTGTCTGTATCACAATGGGAACGGGGTGATAGTGAACCTACAGGGAAGAACCTTTTTGCCCTCAGTAAAGTATTGCAATGCTCACCAACATGG (double strand) [dicC probe],no binding
